Test results reported in patent US20200123175A1, “NOVEL ISOTHIAZOLO-BASED BICYCLES, PROCESSES FOR THEIR PREPARATION AND THEIR USE AS HERBICIDES AND/OR PLANT GROWTH REGULATORS” (Bayer CropScience Aktiengesellschaft, priority 2017, published 2020).
Read-outs that look alike come from different tables or passages of the source. Some entries share one result that the patent states for a list of compounds.

Experiments:
Phytophthora infestans = assay type: in vivo; settings: tomato plants, evaluated 5 days after the inoculation
Sphaerotheca fuliginea = assay: In vivo preventive test on Sphaerotheca fuliginea (powdery mildew on cucurbits); settings: gherkin plants, evaluated 15 days after the inoculation
Septoria tritici = assay: In vivo preventive test on Septoria tritici (leaf spot on wheat); settings: wheat plants, evaluated 24 days after the inoculation
Alternaria brassicae = assay: In vivo preventive test on Alternaria brassicae (leaf spot on radish or cabbage); settings: 500 ppm of active ingredient; radish or cabbage plants; evaluated 6 days after the inoculation
Puccinia recondita = assay: In vivo preventive test on Puccinia recondita (brown rust on wheat); settings: 500 ppm of active ingredient; wheat plants; evaluated 11 days after the inoculation
Description: 4) Example: In Vivo Preventive Test on Puccinia recondita (Brown Rust on Wheat) [table] The active ingredients were made soluble and homogenized in a mixture of Dimethyl sulfoxide/Acetone//Tween® 80 and then diluted in water to the desired concentration. The young plants of wheat were treated by spraying the active ingredient prepared as described above. Control plants were treated only with an aqueous solution of Acetone/Dimethyl sulfoxide/Tween® 80. After 24 hours, the plants were contaminated by spraying the leaves with an aqueous suspension of Puccinia recondita spores.

Uromyces appendiculatus = assay: In vivo preventive test on Uromyces appendiculatus (bean rust); settings: 500 ppm of active ingredient; bean plants; evaluated 11 days after the inoculation
Botrytis cinerea = assay: In vivo preventive test on Botrytis cinerea (grey mould); settings: 500 ppm of active ingredient; gherkin plants; evaluated 4 to 5 days after the inoculation

Measured: efficacy

O=C(Nc1nsc2c(=O)n(Cc3ccc(F)cc3F)cnc12)C(F)(F)C(F)(F)Cl [Example I-76]
at least 70%: Phytophthora infestans; 100 ppm of active ingredient | Sphaerotheca fuliginea; 100 ppm of active ingredient

Nc1nsc2c1NCN(Cc1ccccc1F)C2=O [Example I-60]
at least 70%: Phytophthora infestans; 500 ppm of active ingredient | Septoria tritici; 500 ppm of active ingredient

O=C(Nc1nsc2c(=O)n(CC3CCCCC3)cnc12)C(F)(F)F [Example I-53]
at least 70%: Alternaria brassicae | Phytophthora infestans; 100 ppm of active ingredient | Puccinia recondita | Uromyces appendiculatus

Nc1nsc2c(=O)n(Cc3ccccc3F)cnc12 [Example I-04]
at least 70%: Botrytis cinerea | Phytophthora infestans; 500 ppm of active ingredient | Septoria tritici; 500 ppm of active ingredient

Nc1nsc2c(=O)n(CC3CCOCC3)cnc12 [Example I-11]
at least 70%: Phytophthora infestans; 500 ppm of active ingredient | Septoria tritici; 500 ppm of active ingredient

Nc1nsc2c(=O)n(Cc3ccccc3)cnc12 [Example I-02]
at least 70%: Botrytis cinerea | Phytophthora infestans; 500 ppm of active ingredient | Septoria tritici; 500 ppm of active ingredient

O=C(Nc1nsc2c(=O)n(Cc3ccc(F)cc3F)cnc12)C(F)(F)F [Example I-85]
at least 70%: Alternaria brassicae | Phytophthora infestans; 100 ppm of active ingredient | Puccinia recondita | Septoria tritici; 500 ppm of active ingredient | Uromyces appendiculatus

CCCC(=O)Nc1nsc2c(=O)n(Cc3ccccn3)cnc12 [Example I-46]
at least 70%: Phytophthora infestans; 500 ppm of active ingredient | Sphaerotheca fuliginea; 500 ppm of active ingredient

O=C(Nc1nsc2c(=O)n(CC3CCCCC3)cnc12)C(F)(F)C(F)(F)C(F)(F)F [Example I-58]
at least 70%: Alternaria brassicae | Phytophthora infestans; 100 ppm of active ingredient | Septoria tritici; 500 ppm of active ingredient | Sphaerotheca fuliginea; 500 ppm of active ingredient

CC(C)C(=O)Nc1nsc2c(=O)n(C(C)c3ccccc3)cnc12 (stereo not drawn) [Example I-52]
at least 70%: Phytophthora infestans; 500 ppm of active ingredient | Septoria tritici; 500 ppm of active ingredient | Sphaerotheca fuliginea; 500 ppm of active ingredient

O=C(Nc1nsc2c(=O)n(CC3CCCCC3)cnc12)C(F)(F)C(F)(F)F [Example I-57]
at least 70%: Alternaria brassicae | Phytophthora infestans; 100 ppm of active ingredient | Septoria tritici; 500 ppm of active ingredient | Sphaerotheca fuliginea; 100 ppm of active ingredient | Uromyces appendiculatus

Nc1nsc2c1NCN(CC1CCCC1)C2=O [Example I-63]
at least 70%: Alternaria brassicae | Phytophthora infestans; 500 ppm of active ingredient | Puccinia recondita | Sphaerotheca fuliginea; 100 ppm of active ingredient | Uromyces appendiculatus

CCC(=O)Nc1nsc2c(=O)n(CC3CCCCC3)cnc12 [Example I-54]
at least 70%: Alternaria brassicae | Phytophthora infestans; 100 ppm of active ingredient | Puccinia recondita | Sphaerotheca fuliginea; 500 ppm of active ingredient | Uromyces appendiculatus

CCCC(=O)Nc1nsc2c(=O)n(C(C)c3ccccc3)cnc12 (stereo not drawn) [Example I-51]
at least 70%: Phytophthora infestans; 500 ppm of active ingredient | Septoria tritici; 500 ppm of active ingredient

Nc1nsc2c(=O)n(CC3CCC3)cnc12 [Example I-15]
at least 70%: Phytophthora infestans; 500 ppm of active ingredient | Puccinia recondita | Septoria tritici; 500 ppm of active ingredient | Sphaerotheca fuliginea; 500 ppm of active ingredient

O=C(Nc1nsc2c(=O)n(CC3CCCCC3)cnc12)c1cccnc1 [Example I-06]
at least 70%: Phytophthora infestans; 100 ppm of active ingredient | Septoria tritici; 100 ppm of active ingredient | Uromyces appendiculatus

Nc1nsc2c(=O)n(Cc3cc(F)ccc3F)cnc12 [Example I-13]
at least 70%: Phytophthora infestans; 500 ppm of active ingredient

COCC(=O)Nc1nsc2c(=O)n(Cc3ccc(F)cc3F)cnc12 [Example I-83]
at least 70%: Phytophthora infestans; 500 ppm of active ingredient | Septoria tritici; 500 ppm of active ingredient

Nc1nsc2c1NCN(Cc1ccc(F)cc1)C2=O [Example I-64]
at least 70%: Alternaria brassicae | Phytophthora infestans; 100 ppm of active ingredient | Puccinia recondita | Sphaerotheca fuliginea; 500 ppm of active ingredient | Uromyces appendiculatus

COC(=O)CCC(=O)Nc1nsc2c(=O)n(CC3CCCCC3)cnc12 [Example I-72]
at least 70%: Phytophthora infestans; 500 ppm of active ingredient | Puccinia recondita | Septoria tritici; 100 ppm of active ingredient | Sphaerotheca fuliginea; 100 ppm of active ingredient
